Test results reported in PMC13245899.
No constants are given. Whether binding was seen depends on the method and setting. Binding seen in cells or lysates may run through a third protein. Tags and fused reporters may be left off the sequences shown.

Protein sequences, listed by entry. Tags and fused reporters are not part of them. Lines headed by an entry give the natural chain unless they say otherwise; changes in a name come on top.
UniProt Q27268: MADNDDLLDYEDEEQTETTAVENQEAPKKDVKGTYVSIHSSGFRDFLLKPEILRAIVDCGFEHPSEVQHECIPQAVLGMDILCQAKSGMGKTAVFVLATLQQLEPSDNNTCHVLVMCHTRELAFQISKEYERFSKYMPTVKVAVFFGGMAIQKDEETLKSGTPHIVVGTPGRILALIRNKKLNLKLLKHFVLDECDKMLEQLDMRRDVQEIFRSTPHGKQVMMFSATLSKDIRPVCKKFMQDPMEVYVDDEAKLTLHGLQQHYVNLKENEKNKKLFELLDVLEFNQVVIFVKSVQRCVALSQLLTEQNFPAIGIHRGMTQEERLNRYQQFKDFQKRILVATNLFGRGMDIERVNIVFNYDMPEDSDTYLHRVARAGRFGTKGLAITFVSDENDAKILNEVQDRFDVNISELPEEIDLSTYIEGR

Assays:
[1] = target: wild-type UAP56::GFP (Drosophila) (UniProt Q27268); assay: co-IP; lysates with UAP56::GFP variants and tagged THOC7 precipitated with mouse anti-GFP antibodies on protein A sepharose for 2 h; blotted for THOC7
[2] = target: UAP56::GFP E194Q (Drosophila) (UniProt Q27268); assay: as above

B1: tagged THOC7 (protein, UniProt Q8IRJ8 1-288)
chain: MSEQCQLRPHSDTLVRKLVEMNDEEIIKQRLLIDGDGTGEDRRIVVLLKQFLKWASDSLDSNPIMYDRLMAQFAQCKLTALKNVQTLQMIAGERDNYTQLVEHHEESIVLAKAEIESSKKELITAKQIRKNKMEYDLLASLIQDQPDRSETQRHIETIRREIDDLVQKKLKMERKFQKRRNDFTLLMYTIHELEQQLDQDSSSSASSSSSDCDARSEPDLDDNGIMEVSDEDDDLNNSTPTKFDGARGEPKYHSVSTEDSKAMSVEEDTVLELSIDKDEHDVDVAVAN
[1]
  binding: no binding
[2]
  binding: no binding
